Experimental data from the supplement of paper PMC10849652.
The list shows a part of the results.

By UniProt entry, the sequences of proteins in these tests, tags left out. Where a name states a change or a piece, a line headed by the entry shows the natural chain unless it says otherwise.
UniProt O43278: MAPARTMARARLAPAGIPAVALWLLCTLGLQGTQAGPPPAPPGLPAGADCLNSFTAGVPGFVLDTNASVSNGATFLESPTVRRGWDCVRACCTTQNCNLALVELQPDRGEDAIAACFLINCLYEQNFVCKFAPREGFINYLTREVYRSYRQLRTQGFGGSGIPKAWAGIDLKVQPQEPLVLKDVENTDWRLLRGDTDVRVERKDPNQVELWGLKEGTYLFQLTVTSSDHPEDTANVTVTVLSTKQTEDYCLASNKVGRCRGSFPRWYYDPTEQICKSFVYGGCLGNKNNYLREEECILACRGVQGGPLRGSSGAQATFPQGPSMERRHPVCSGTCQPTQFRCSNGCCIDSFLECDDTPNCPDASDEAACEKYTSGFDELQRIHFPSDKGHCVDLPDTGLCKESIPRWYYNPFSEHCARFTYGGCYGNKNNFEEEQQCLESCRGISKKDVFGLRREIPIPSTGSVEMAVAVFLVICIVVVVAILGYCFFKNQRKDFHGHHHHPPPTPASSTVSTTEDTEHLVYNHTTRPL
UniProt Q9NY15: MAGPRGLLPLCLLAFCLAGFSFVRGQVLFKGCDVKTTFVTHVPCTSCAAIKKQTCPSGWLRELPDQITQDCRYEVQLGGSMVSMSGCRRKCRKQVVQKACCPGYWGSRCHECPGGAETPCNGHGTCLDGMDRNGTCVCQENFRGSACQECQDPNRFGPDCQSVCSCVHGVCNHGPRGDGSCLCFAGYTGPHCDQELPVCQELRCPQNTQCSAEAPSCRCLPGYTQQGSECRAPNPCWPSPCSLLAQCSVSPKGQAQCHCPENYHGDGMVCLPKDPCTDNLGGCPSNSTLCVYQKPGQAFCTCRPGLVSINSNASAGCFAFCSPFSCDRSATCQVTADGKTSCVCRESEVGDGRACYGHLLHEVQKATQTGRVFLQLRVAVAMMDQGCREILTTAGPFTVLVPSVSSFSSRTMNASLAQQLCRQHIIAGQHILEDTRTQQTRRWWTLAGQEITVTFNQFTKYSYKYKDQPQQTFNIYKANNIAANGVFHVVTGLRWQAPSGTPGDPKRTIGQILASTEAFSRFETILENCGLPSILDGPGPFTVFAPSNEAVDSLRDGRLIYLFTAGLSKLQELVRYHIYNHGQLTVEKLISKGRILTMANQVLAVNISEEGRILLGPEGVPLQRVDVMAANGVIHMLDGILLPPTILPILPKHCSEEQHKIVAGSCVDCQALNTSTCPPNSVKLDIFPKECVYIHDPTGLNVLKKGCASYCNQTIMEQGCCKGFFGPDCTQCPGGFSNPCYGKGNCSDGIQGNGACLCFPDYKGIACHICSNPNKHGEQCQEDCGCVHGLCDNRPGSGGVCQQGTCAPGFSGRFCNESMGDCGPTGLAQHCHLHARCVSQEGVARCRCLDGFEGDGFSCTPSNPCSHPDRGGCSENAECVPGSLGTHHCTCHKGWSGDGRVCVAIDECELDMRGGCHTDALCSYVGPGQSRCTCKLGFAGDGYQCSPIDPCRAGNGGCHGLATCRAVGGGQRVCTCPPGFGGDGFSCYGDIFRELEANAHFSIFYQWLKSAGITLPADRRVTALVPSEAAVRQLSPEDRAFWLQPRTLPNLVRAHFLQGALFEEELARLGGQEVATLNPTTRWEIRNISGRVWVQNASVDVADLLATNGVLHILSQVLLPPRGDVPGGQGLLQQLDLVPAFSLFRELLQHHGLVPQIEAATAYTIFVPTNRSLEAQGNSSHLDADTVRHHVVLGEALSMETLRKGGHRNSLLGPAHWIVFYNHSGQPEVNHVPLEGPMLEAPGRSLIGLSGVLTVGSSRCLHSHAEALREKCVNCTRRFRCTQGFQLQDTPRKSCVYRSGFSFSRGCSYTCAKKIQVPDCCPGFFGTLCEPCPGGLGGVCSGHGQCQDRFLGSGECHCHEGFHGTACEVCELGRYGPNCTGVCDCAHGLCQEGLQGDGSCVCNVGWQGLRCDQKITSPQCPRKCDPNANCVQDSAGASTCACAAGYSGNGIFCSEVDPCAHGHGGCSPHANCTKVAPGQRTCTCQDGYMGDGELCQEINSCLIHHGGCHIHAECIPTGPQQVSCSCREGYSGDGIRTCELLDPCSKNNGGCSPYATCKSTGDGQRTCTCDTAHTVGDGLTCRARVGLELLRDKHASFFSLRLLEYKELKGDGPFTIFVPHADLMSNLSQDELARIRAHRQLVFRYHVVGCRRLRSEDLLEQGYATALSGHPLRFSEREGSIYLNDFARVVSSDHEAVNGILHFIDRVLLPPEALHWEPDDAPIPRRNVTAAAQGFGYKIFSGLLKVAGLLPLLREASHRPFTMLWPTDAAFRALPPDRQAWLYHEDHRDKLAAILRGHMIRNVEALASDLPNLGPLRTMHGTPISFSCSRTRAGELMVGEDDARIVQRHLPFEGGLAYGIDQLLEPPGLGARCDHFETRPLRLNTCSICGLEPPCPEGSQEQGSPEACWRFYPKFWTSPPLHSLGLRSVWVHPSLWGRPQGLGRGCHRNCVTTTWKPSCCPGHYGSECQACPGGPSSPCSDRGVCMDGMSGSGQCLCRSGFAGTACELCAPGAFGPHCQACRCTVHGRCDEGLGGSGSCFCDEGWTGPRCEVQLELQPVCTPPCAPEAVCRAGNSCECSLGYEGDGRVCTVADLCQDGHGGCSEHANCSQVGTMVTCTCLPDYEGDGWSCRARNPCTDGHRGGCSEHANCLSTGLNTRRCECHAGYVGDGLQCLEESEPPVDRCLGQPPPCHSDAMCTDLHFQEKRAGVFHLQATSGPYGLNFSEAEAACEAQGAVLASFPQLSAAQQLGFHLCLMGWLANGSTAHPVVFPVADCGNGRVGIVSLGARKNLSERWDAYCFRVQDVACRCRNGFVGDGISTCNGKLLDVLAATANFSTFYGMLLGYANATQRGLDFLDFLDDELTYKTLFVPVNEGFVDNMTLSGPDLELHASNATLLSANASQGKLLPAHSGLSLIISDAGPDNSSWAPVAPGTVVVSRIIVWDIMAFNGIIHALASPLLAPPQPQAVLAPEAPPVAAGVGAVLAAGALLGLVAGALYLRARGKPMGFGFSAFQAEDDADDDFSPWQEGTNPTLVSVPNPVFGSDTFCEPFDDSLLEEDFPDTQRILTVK
UniProt Q9ULZ2: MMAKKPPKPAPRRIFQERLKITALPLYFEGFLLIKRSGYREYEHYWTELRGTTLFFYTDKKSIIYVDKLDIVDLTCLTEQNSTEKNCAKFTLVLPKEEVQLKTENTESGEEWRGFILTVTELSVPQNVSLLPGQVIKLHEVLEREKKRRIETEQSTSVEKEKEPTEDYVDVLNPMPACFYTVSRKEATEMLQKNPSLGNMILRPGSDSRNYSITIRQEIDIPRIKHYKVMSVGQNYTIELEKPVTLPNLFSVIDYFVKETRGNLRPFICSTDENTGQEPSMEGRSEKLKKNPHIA
UniProt P35325: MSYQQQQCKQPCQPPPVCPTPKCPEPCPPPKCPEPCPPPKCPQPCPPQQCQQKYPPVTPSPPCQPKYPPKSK
UniProt Q8N3U4: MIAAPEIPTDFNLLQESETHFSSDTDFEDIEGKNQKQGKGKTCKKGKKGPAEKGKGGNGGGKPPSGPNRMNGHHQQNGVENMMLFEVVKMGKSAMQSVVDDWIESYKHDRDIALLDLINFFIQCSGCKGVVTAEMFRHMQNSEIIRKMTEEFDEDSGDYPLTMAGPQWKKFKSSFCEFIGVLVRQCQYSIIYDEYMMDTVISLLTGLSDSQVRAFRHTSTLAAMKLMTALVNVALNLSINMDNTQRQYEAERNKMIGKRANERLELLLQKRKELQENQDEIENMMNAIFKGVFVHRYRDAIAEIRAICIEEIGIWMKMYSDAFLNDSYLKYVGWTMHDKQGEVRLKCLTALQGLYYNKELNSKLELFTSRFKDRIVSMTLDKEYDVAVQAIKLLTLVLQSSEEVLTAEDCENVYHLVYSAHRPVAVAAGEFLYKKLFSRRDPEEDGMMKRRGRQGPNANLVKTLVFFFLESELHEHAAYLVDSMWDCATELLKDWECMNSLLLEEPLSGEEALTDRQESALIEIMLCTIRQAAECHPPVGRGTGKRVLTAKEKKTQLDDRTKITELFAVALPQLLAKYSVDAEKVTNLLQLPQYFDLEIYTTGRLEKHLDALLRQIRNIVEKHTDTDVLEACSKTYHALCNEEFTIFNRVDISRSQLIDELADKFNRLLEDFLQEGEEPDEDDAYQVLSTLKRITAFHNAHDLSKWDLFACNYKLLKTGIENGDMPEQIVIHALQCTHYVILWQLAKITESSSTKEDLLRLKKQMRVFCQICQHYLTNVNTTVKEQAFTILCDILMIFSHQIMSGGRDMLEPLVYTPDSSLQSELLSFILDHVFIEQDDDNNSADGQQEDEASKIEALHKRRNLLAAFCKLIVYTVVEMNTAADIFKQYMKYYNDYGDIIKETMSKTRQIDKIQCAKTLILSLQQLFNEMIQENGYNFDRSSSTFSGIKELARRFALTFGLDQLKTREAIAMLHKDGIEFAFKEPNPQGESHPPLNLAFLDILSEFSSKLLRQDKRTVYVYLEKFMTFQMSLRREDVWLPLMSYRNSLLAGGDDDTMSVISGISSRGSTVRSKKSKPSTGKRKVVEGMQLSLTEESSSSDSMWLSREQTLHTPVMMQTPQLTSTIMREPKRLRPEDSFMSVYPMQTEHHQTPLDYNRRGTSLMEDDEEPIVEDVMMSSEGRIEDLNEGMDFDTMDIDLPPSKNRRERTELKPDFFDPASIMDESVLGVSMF
UniProt Q8WVM7: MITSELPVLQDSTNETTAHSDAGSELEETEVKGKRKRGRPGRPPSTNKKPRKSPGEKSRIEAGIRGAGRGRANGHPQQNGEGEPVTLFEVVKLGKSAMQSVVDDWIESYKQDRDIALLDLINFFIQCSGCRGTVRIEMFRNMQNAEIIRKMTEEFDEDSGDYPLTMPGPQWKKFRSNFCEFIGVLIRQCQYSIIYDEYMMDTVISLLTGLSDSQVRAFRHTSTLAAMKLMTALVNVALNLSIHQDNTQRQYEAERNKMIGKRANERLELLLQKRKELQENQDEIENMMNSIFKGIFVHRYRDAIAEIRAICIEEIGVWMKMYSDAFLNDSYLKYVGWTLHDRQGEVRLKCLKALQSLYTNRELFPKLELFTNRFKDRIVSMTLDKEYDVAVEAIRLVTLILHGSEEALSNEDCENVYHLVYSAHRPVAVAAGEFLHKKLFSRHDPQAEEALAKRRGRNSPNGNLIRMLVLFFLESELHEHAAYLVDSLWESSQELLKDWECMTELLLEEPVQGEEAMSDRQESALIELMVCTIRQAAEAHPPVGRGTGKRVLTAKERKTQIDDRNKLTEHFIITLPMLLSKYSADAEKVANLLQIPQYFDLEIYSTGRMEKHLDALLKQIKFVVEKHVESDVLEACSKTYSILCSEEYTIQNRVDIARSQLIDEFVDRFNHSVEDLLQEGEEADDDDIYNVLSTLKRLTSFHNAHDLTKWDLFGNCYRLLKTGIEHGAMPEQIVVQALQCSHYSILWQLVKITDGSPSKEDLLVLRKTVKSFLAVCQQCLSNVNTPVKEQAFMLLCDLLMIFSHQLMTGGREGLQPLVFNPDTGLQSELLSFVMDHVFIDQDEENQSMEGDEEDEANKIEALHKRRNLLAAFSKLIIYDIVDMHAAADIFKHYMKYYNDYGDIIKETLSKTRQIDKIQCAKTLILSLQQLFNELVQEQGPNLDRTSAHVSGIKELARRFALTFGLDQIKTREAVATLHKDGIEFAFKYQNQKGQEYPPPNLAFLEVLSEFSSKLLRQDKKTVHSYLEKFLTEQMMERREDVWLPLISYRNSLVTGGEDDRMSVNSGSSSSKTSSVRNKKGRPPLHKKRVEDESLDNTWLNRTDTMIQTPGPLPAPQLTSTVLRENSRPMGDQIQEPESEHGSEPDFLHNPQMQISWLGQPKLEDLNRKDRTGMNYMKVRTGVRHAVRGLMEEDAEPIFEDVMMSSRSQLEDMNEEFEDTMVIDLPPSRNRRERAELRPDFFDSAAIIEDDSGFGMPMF
UniProt Q9Y2D8: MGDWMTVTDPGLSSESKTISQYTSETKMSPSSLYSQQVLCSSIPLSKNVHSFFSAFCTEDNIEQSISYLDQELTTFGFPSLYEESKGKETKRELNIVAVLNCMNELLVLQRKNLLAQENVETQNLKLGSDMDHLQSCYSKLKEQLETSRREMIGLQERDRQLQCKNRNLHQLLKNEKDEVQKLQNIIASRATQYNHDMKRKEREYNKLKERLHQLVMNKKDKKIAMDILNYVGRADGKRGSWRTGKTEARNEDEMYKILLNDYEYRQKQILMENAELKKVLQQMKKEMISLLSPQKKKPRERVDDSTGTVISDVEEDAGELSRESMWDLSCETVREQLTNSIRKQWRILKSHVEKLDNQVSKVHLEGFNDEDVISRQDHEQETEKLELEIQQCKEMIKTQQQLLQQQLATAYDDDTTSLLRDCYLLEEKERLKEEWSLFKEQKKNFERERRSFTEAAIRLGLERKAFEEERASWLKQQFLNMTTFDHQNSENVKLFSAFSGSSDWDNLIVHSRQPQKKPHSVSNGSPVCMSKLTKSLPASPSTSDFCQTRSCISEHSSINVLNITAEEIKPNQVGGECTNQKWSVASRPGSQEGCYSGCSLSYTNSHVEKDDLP

compound: C#Cc1cccc(Nc2ncnc3cc(OCCOC)c(OCCOC)cc23)c1 [erlotinib]; assay: log2 fold change, soluble protein after heating vs DMSO (PISA); higher = thermal stabilisation; K562 lysate, 10 uM; active = over 0.2 and 3.5 SD of the protein, either way, in both replicates (recomputed)
In short: (§1)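 K562 pellets were dounce-homogenised in PBS pH 7.4 containing 1 mM MgCl2, and the crude extract, at 1 mg/mL protein, was exposed to 10 μM compound for 30 min. Aliquots were heated for 3 min across 48°C-58°C, pooled, brought to 0.5% NP-40 at 4°C and spun at 21,000xg for 90 min, with the supernatant taken as soluble protein. TMTpro 16plex LC-MS/MS with equalised channel sums quantified that protein. Values are log-two fold changes in thermal stability relative to solvent controls, taken from duplicates.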

log2 fold change, inactive:
SPINT1 (UniProt O43278) 0.007, SRP14 (UniProt H0YLW0) 0.129, SPRED1 (UniProt Q7Z699) 0.05, SREBF1 isoform 4 (UniProt P36956) 0.04, SQOR (UniProt Q9Y6N5) -0.014, STAB1 (UniProt Q9NY15) 0.002, STAU1 isoform 3 (UniProt O95793) -0.006, STAP1 (UniProt Q9ULZ2) 0.027, SPRR2B (UniProt P35325) 0.019, SPTY2D1 (UniProt Q68D10) 0.058, SREK1IP1 (UniProt Q8N9Q2) 0.005, SRC isoform 2 (UniProt P12931) -0.073, SPTBN1 isoform 3 (UniProt Q01082) 0.021, STAG2 (UniProt Q8N3U4) 0.082, SPRYD3 (UniProt Q8NCJ5) -0.155, STAG1 (UniProt Q8WVM7) 0.017, SRCIN1 (UniProt Q9C0H9) 0.193, SS18L1 (UniProt O75177) -0.037

compound: C/C(=N\NC(=O)C1=CC(=CC=C1)S(=O)(=O)N2CCOCC2)/C3=C(C=CC(=C3)Cl)O; assay: as above
In short: as §1

log2 fold change, inactive:
SSBP4 (UniProt Q9BWG4) 0.127, SSBP4 (UniProt U3KPY3) 0.178, STEAP3 isoform 2 (UniProt Q658P3) 0.002, SPIN4 (UniProt Q56A73) 0.156, SPTAN1 isoform 3 (UniProt Q13813) 0.094, SPRTN (UniProt Q9H040) 0.4, SPATA33 isoform 2 (UniProt Q96N06) -0.052, SSX2IP (UniProt Q9Y2D8) -0.07

compound: C1=CC(=CC=C1C2=NC3=C(N2)C=C(C=C3)C(=O)N)OC4=CC=C(C=C4)Cl; assay: as above
In short: as §1

log2 fold change, inactive:
SPINT1 (UniProt O43278) -0.069, SRP14 (UniProt H0YLW0) 0.22, SPRED1 (UniProt Q7Z699) -0.026, SREBF1 isoform 4 (UniProt P36956) 0.128, SQOR (UniProt Q9Y6N5) -0.208, STAB1 (UniProt Q9NY15) 0, STAU1 isoform 3 (UniProt O95793) -0.016, STAP1 (UniProt Q9ULZ2) 0.102, SPRR2B (UniProt P35325) -0.099, SPTY2D1 (UniProt Q68D10) -0.054, SREK1IP1 (UniProt Q8N9Q2) 0.031, SRC isoform 2 (UniProt P12931) 0.028, SPTBN1 isoform 3 (UniProt Q01082) -0.049, STAG2 (UniProt Q8N3U4) -0.184, SPRYD3 (UniProt Q8NCJ5) -0.009, STAG1 (UniProt Q8WVM7) -0.054, SRCIN1 (UniProt Q9C0H9) 0.079, SS18L1 (UniProt O75177) 0.028
